Values quoted from earlier work as cited in patent publication US6828346B2, “Methods for administration of paclitaxel” (SuperGen, Inc., priority 1999, dated 2004).

solubility in water: less than 0.01 mg/mL
Compound: CC(=O)O[C@H]1C(=O)[C@@]2(C)[C@H]([C@H](OC(=O)c3ccccc3)[C@]3(O)C[C@H](OC(=O)[C@H](O)[C@@H](NC(=O)c4ccccc4)c4ccccc4)C(C)=C1C3(C)C)[C@]1(OC(C)=O)CO[C@@H]1C[C@@H]2O [paclitaxel]
